Measurements reported in US8470856B2, “Anthranilamide compounds, process for their production and pesticides containing them” (Ishihara Sangyo Kaisha, Ltd., priority 2004, dated 2013).
Some entries share one result that the patent states for a list of compounds.

Assays:
Type in all cases: in vivo
[1] = system: Formosan Subterranean Termite (Coptotermes formosanus); assay: Controlling effects against Formosan subterranean termite, treated filter paper; details: 1 ml of 500 ppm solution on filter paper, workers, 6 days after treatment
[2] = system: Green Peach Aphid (Myzus persicae); assay: Controlling effects against green peach aphid, eggplant leaf dip; details: 800 ppm, larvae, 5 days after treatment
Thrips palmi = assay: Controlling effects against Thrips palmi, cucumber leaf dip; details: 50 ppm, first instar larvae, 12 to 15 days after treatment
[3] = system: Common Cutworm (Spodoptera litura); assay: Systemic effects against common cutworm, application to foot of cabbage; details: 10 ml of 200 ppm applied to foot of cabbage, leaf cut ten days after treatment, 4 to 5 days after release
[4] = system: Common Cutworm (Spodoptera litura); assay: Controlling effects against common cutworm, cabbage leaf dip; details: 3.1 ppm, second-third instar larvae, 5 days after release
Description: Test on Controlling Effects Against Common Cutworm (Spodoptera litura)
A leaf segment of cabbage was dipped for about 10 seconds in an insecticidal solution prepared to bring the concentration of the compound of the present invention to 50 ppm or 3.1 ppm and dried in air. A wet filter paper was laid in a petri dish having a diameter of 9 cm, and the dried leaf segment of cabbage was placed thereon. Ten second-third instar larvae common cutworm were released therein and after putting a cover, left in a constant temperature chamber at 25° C. with lightening. Dead larvae were counted 5 days after the release, and the mortality was calculated by the following equation. Here, moribund insects were counted as dead insects. […] Mortality(%)=(number of dead insects/number of released insects)×100

[5] = system: Cotton Aphid (Aphis gossypii); assay: Controlling effects against cotton aphid, eggplant leaf dip; details: 50 ppm, larvae, 5 days after treatment
[6] = system: Silverleaf Whitefly (Bemisia argentifoli); assay: Controlling effects against silverleaf whitefly, cucumber leaf dip; details: 50 ppm, infested cucumber leaf dip, counted 10 to 14 days after treatment
[7] = system: Housefly (Musca domestica); assay: Controlling effects against housefly, treated culture medium; details: 10 ml of 200 ppm solution mixed into 10 g culture medium, 4-day old larvae, 15 to 16 days
[8] = system: Twenty-eight-spotted Ladybird (Epilachna vigintioctopunctata); assay: Controlling effects against twenty-eight-spotted ladybird, eggplant leaf dip; details: 12.5 ppm, first-second instar larvae, 4 to 6 days after release
[9] = system: Serpentine Leafminer (Liriomyza trifolii); assay: Controlling effects against serpentine leafminer, kidney bean leaf dip; details: 12.5 ppm, kidney bean leaf with eggs dipped, 6 to 8 days after treatment

CC(NC(=O)c1cc(Cl)cc(Br)c1NC(=O)c1cc(Br)nn1-c1ncccc1Cl)C1CC1 (stereo not drawn) [compound No. 16, N-[2-bromo-4-chloro-6-[[α-methyl-(cyclopropylmethyl)amino]carbonyl]-phenyl]-3-bromo-1-(3-chloro-2-pyridyl)-1H-pyrazol-5-carboxamide]
mortality [1]: at least 90%
mortality [2]: at least 90%
protective value (Thrips palmi): at least 90%
mortality [3]: at least 90%
mortality [4]: at least 90%
mortality [5]: at least 90%
protective value [6]: at least 80%
percent inhibition of emergence [7]: at least 90%
mortality [8]: at least 90%
protective value [9]: at least 90%
